These are yes or no findings as the source states them, for the method shown.

The chains behind the UniProt entries cited, without tags or fusion partners. Residues count along the entry.
UniProt Q04206, residues 19-325: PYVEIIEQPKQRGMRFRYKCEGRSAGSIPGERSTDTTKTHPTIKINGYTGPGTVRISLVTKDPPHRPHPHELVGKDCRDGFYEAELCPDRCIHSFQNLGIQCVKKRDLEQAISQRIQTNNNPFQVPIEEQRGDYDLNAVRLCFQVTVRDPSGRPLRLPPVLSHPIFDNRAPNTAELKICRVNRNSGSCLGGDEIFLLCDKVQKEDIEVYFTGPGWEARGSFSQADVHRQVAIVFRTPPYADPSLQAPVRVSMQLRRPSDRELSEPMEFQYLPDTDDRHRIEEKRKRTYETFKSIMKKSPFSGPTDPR

The target in assay [1] is P65 Rel Homology Region (P65RHR) (UniProt Q04206). As to the kind of experiment: SPR; P65RHR bound to biotinylated IgκB DNA on an SPR chip; p65 alone (50 nM) against p65 with pirin (12.5 – 200 nM); both purified. Background: In SPR one partner is held on a chip, and binding of the other changes the refractive index at the surface.
The target is the same in assay [2]. As to the kind of experiment: fluorescence polarisation; 5 nM FAM-labeled IgκB DNA with p65 from 3 nM to 4 μM, with or without 500 nM Fe(III)-pirin, 1 hour at room temperature; reads p65 binding to DNA, pirin's effect on it; both purified. In general terms: In fluorescence polarisation assays a small probe gives low polarisation when free and higher when bound to something large.

The target is the same in assay [3]. As to the kind of experiment: SEC; P65RHR/DNA complex (20 μM) incubated with 40 μM Fe(III)-pirin for 1 hour at room temperature; Superdex 200 10/300 GL; 25 mM Tris HCl pH 7.5, 50 mM NaCl; fractions read by Coomassie staining (p65) and Western blot (pirin); both purified.

B1: Fe(III)-pirin (protein, UniProt O00625 1-290)
chain: MGSSKKVTLSVLSREQSEGVGARVRRSIGRPELKNLDPFLLFDEFKGGRPGGFPDHPHRGFETVSYLLEGGSMAHEDFCGHTGKMNPGDLQWMTAGRGILHAEMPCSEEPAHGLQLWVNLRSSEKMVEPQYQELKSEEIPKPSKDGVTVAVISGEALGIKSKVYTRTPTLYLDFKLDPGAKHSQPIPKGWTSFIYTISGDVYIGPDDAQQKIEPHHTAVLGEGDSVQVENKDPKRSHFVLIAGEPLREPVIQHGPFVMNTNEEISQAILDFRNAKNGFERAKTWKSKIGN
B1: the binding entry in assay [1] is reported as “no binding (tested: 12.5 – 200 nM)”; in assay [2], “no binding (tested: 500 nM)”; in assay [3] it was “no binding (tested: 40 μM)”.

Source of the values: paper doi:10.1101/2024.12.03.626411.
